Further values from the same series stand in other lists.
Assay: Solubility and room temperature stability of M4N in modified cyclodextrin / PEG formulations (visual inspection)
Type: physicochemical
Method: A 100 mL solution of 40% HP-β-CD for use as a solubilizing agent and/or excipient was made as follows: 65 mL of WFI were placed in a glass beaker containing a stir bar. The beaker was placed on a magnetic plate, and the stir bar was set to stir at medium speed. About forty (40) grams of HP-β-CD were added slowly to the stirring WFI, using a spatula to direct the HP-β-CD to the center of the beaker so as to prevent HP-β-CD crystals from sticking to the beaker wall. The HP-β-CD solution was stirred for about 24 hr or until the HP-β-CD was dissolved completely upon visual inspection. The resulting solution measured about 93 mL. About 7 mL of WFI was added to this resulting solution to obtain 100 mL, producing a final solution of about 40% HP-β-CD. The final solution was stirred for about 1 hr, stored at room temperature, and was protected from light. This method of making the modified cyclodextrin solution may be scaled up or down to obtain the desired volume or concentration. Other concentrations or other modified cyclodextrin solutions may be similarly made, for example, by substituting HP-β-CD with other modified cyclodextrins, adjusted for the appropriate concentrations in the process described above.
A 10 mL solution of M4N at a concentration of about 10 mg/mL in 40% HP-β-CD was made as follows. About 10 mL of the 40% HP-β-CD solution were added to a glass beaker containing a stir bar. The beaker was placed on a magnetic plate and the stir bar was set to stir at medium speed. About […] of M4N were slowly added to the 40% HP-β-CD in the center of the beaker with the aid of a spatula. The M4N/40% HP-β-CD mixture was stirred for 2 hr or until all M4N was uniformly suspended without any clumps being present. The M4N/40% HP-β-CD mixture was optionally heated at 80° C. for about 30 min. (or longer if a larger volume of solution was desired, for example, 1 hr at 80° C. for 100 mL of the M4N/HP-β-CD mixture), or longer as needed to ensure complete dissolution of M4N. […] The final M4N/40% HP-β-CD solution was stored at room temperature and was kept protected from light. This process may be scaled up or down to obtain the requisite volume or concentration of M4N. Formulations containing M4N in other cyclodextrin solutions may be similarly made, such as, for example, by substituting HP-β-CD in the process described above with other cyclodextrins.
A 100 mL solution of M4N at a concentration of about 25 mg/mL in PEG 300 was made as follows. About 100 mL of PEG 300 were added to a glass beaker containing a stir bar. The beaker was placed on a magnetic plate and the stir bar was set to stir at medium speed. About 2.5 g of M4N were slowly added to the PEG 300 in the center of the beaker with the aid of a spatula to prevent M4N from sticking to the beaker wall. The M4N/PEG 300 mixture was stirred for 24 hr or until all M4N had dissolved or was uniformly suspended without any clumps being present. The M4N/PEG 300 mixture was optionally heated at about 60° C. for about 30 min. (or longer if a larger volume of solution was desired, for example, 1 hr at 60° C. for 500 mL of the M4N/PEG 300 mixture), or longer as needed to ensure complete dissolution of M4N. […] If crystals formed, the M4N/PEG 300 solution could be heated again at 60° C. for about 1 hr, with stirring, on a hot magnetic plate until all M4N was dissolved back in solution. The final M4N/PEG 300 solution was stored at room temperature and was kept protected from light. This process may be scaled up or down to obtain the requisite volume or concentration of M4N. Formulations containing M4N in other PEGs may be similarly made, such as, for example, by substituting PEG 300 in the process described above with PEG 400 or PEG 400 monolaurate. […]

[1] = 5% HP-β-CD, 12.5% PEG 300 (v/v), M4N 3.13 mg/mL
[2] = 6.7% HP-β-CD, 16.7% PEG 300 (v/v), M4N 4.17 mg/mL
[3] = 10% HP-β-CD, 25% PEG 300 (v/v), M4N 6.25 mg/mL
[4] = 10% HP-β-CD, 77% PEG 300 (v/v), M4N 19.3 mg/mL
[5] = 12.5% HP-β-CD, 50% PEG 300 (v/v), M4N 12.5 mg/mL
[6] = 12.5% HP-β-CD, 50% PEG 400 (v/v), M4N 12.5 mg/mL
[7] = 13% HP-β-CD, 67% PEG 300 (v/v), M4N 16.7 mg/mL
[8] = 15% HP-β-CD, 50% PEG 300 (v/v), M4N 12.5 mg/mL
[9] = 15% HP-β-CD, 50% PEG 400 (v/v), M4N 12.5 mg/mL
[10] = 20% HP-β-CD, 50% PEG 300 (v/v), M4N 12.5 mg/mL
[11] = 20% HP-β-CD, 50% PEG 400 (v/v), M4N 12.5 mg/mL
[12] = 23% HP-β-CD, 43% PEG 400 (v/v), M4N 12.9 mg/mL
[13] = 23% HP-β-CD, 43 PEG 300 (v/v), M4N 12.9 mg/mL
[14] = 27% HP-β-CD, 33% PEG 300 (v/v), M4N 13.3 mg/mL
[15] = 27% HP-β-CD, 33% PEG 400 (v/v), M4N 13.3 mg/mL
[16] = 27% HP-β-CD, 33% Tween ® 80 (v/v), M4N 13.3 mg/mL
[17] = 30% HP-β-CD, 25% PEG 400 (v/v), M4N 12.5 mg/mL
[18] = 32% HP-β-CD, 20% PEG 400 (v/v), M4N 10 mg/mL
[19] = 40% HP-β-CD, 5% PEG 400 (v/v), M4N 10 mg/mL
[20] = 50% HP-β-CD in saline, M4N 10 mg/mL
[21] = 50% HP-β-CD, 1.25% PVP (w/v), M4N 1 mg/mL

SMILES: COc1ccc(C[C@@H](C)[C@@H](C)Cc2ccc(OC)c(OC)c2)cc1OC [Formulation M4N, meso-1,4-bis(3,4-dimethoxyphenyl)-2,3-dimethylbutane]
- Dissolution After Rotation (1.50% β-CD, M4N 1 mg/mL): N
- Dissolution After Rotation (1.50% β-CD, M4N 10 mg/mL): N
- Dissolution After Cool Down [1]: Y
- Dissolution After Rotation [1]: N
- Dissolution After Rotation (5% γ-CD, M4N 1 mg/mL): N
- Dissolution After Cool Down [2]: Y
- Dissolution After Rotation [2]: N
- Dissolution After Cool Down [3]: Y
- Dissolution After Rotation [3]: N
- Dissolution After Cool Down [4]: N
- Dissolution After Rotation [4]: N
- Dissolution After Cool Down [5]: Y
- Dissolution After Rotation [5]: N
- Dissolution After Cool Down [6]: Y
- Dissolution After Rotation [6]: N
- Stability at Room Temperature [6]: <1 days
- Dissolution After Heating at X ° C. (12.5% HP-β-CD, 50% PEG 400 (v/v), M4N 12.5 mg/mL, 60°): Y at 60°
- Dissolution After Cool Down [7]: N
- Dissolution After Rotation [7]: N
- Dissolution After Cool Down [8]: Y
- Dissolution After Rotation [8]: N
- Dissolution After Cool Down [9]: Y
- Dissolution After Rotation [9]: N
- Stability at Room Temperature [9]: <3 days
- Dissolution After Heating at X ° C. (15% HP-β-CD, 50% PEG 400 (v/v), M4N 12.5 mg/mL, 60°): Y at 60°
- Dissolution After Rotation (15% α-CD, M4N 1 mg/mL): N
- Dissolution After Heating at X ° C. (15% α-CD, M4N 1 mg/mL, 90°): N at 90°
- Dissolution After Rotation (15% α-CD, M4N 10 mg/mL): N
- Dissolution After Rotation (15% α-CD, M4N 50 mg/mL): N
- Dissolution After Rotation (15% α-CD, M4N 100 mg/mL): N
- Dissolution After Rotation (20% HP-β-CD in saline, M4N 1 mg/mL): N
- Dissolution After Rotation (20% HP-β-CD in saline, M4N 10 mg/mL): N
- Dissolution After Rotation (20% HP-β-CD in saline, M4N 50 mg/mL): N
- Dissolution After Cool Down [10]: Y
- Dissolution After Rotation [10]: N
- Dissolution After Cool Down [11]: Y
- Dissolution After Rotation [11]: N
- Stability at Room Temperature [11]: <7 days
- Dissolution After Heating at X ° C. (20% HP-β-CD, 50% PEG 400 (v/v), M4N 12.5 mg/mL, 60°): Y at 60°
- Dissolution After Cool Down (20% HP-β-CD, M4N 1 mg/mL): Y
- Dissolution After Rotation (20% HP-β-CD, M4N 1 mg/mL): N
- Dissolution After Rotation (20% HP-β-CD, M4N 10 mg/mL): N
- Dissolution After Cool Down [12]: Y
- Dissolution After Rotation [12]: N
- Stability at Room Temperature [12]: >7 days
- Dissolution After Heating at X ° C. (23% HP-β-CD, 43% PEG 400 (v/v), M4N 12.9 mg/mL, 60° C.): Y at 60 °C
- Dissolution After Cool Down [13]: Y
- Dissolution After Rotation [13]: N
- Dissolution After Cool Down [14]: Y
- Dissolution After Rotation [14]: N
- Dissolution After Cool Down [15]: Y
- Dissolution After Rotation [15]: N
- Dissolution After Heating at X ° C. (27% HP-β-CD, 33% PEG 400 (v/v), M4N 13.3 mg/mL, 60°): Y at 60°
- Dissolution After Cool Down [16]: N
- Dissolution After Rotation [16]: N
- Dissolution After Heating at X ° C. (27% HP-β-CD, 33% Tween ® 80 (v/v), M4N 13.3 mg/mL, 60°): Y at 60°
- Dissolution After Cool Down [17]: Y
- Dissolution After Rotation [17]: N
- Dissolution After Cool Down (30% HP-β-CD, M4N 1 mg/mL): Y
- Dissolution After Rotation (30% HP-β-CD, M4N 1 mg/mL): N
- Dissolution After Cool Down (30% HP-β-CD, M4N 10 mg/mL): Y
- Dissolution After Rotation (30% HP-β-CD, M4N 10 mg/mL): N
- Dissolution After Rotation (30% HP-β-CD, M4N 20 mg/mL): N
- Dissolution After Rotation (30% HP-β-CD, M4N 50 mg/mL): N
- Dissolution After Rotation (30% HP-β-CD, M4N 100 mg/mL): N
- Dissolution After Cool Down [18]: Y
- Dissolution After Rotation [18]: N
- Dissolution After Rotation (40% HP-β-CD, 1% PVP (w/v), M4N 1 mg/mL): N
- Dissolution After Rotation (40% HP-β-CD, 1% PVP (w/v), M4N 10 mg/mL): N
- Dissolution After Rotation (40% HP-β-CD, 2.5% PG (v/v), M4N 1 mg/mL): N
- Dissolution After Rotation (40% HP-β-CD, 2.5% PG (v/v), M4N 10 mg/mL): N
- Dissolution After Cool Down [19]: N
- Dissolution After Rotation [19]: N
- Dissolution After Heating at X ° C. (40% HP-β-CD, 5% PEG 400 (v/v), M4N 10 mg/mL, 60°): Y at 60°
- Dissolution After Cool Down (40% HP-β-CD, M4N 1 mg/mL): Y
- Dissolution After Rotation (40% HP-β-CD, M4N 1 mg/mL): N
- Dissolution After Cool Down (40% HP-β-CD, M4N 10 mg/mL): Y
- Dissolution After Rotation (40% HP-β-CD, M4N 10 mg/mL): N
- Dissolution After Rotation (40% HP-β-CD, M4N 12 mg/mL): N
- Dissolution After Rotation (40% HP-β-CD, M4N 14 mg/mL): N
- Dissolution After Rotation (40% HP-β-CD, M4N 16 mg/mL): N
- Dissolution After Rotation (40% HP-β-CD, M4N 20 mg/mL): N
- Dissolution After Rotation (40% HP-β-CD, M4N 50 mg/mL): N
- Dissolution After Rotation (40% HP-β-CD, M4N 100 mg/mL): N
- Dissolution After Cool Down [20]: Y
- Dissolution After Rotation [20]: N
- Dissolution After Cool Down [21]: Y
- Dissolution After Rotation [21]: N
- Dissolution After Rotation (50% HP-β-CD, 1.25% PVP (w/v), M4N 10 mg/mL): N
- Dissolution After Rotation (50% HP-β-CD, 1.25% PVP (w/v), M4N 50 mg/mL): N
- Dissolution After Cool Down (50% HP-β-CD, M4N 1 mg/mL): Y
- Dissolution After Rotation (50% HP-β-CD, M4N 1 mg/mL): N
- Dissolution After Cool Down (50% HP-β-CD, M4N 10 mg/mL): Y
- Dissolution After Rotation (50% HP-β-CD, M4N 10 mg/mL): N
- Dissolution After Rotation (50% HP-β-CD, M4N 20 mg/mL): N
- Dissolution After Rotation (50% HP-β-CD, M4N 50 mg/mL): N
- Dissolution After Rotation (50% HP-β-CD, M4N 100 mg/mL): N
